Test results reported in patent publication US7932384B2, “Reverse-turn mimetics and method relating thereto” (Choongwae Pharma Corporation, priority 2001, dated 2011).
For at least one compound, name, drawing or mass did not settle the structure.

Test system: survivin promoter
Assay: Survivin luciferase reporter in SW480 cells
Assay type: cell-based
Settings: various concentrations

CN1CC(=O)N2[C@@H](Cc3ccc(O)cc3)C(=O)N(Cc3cccc4ccccc34)C[C@@H]2N1C(=O)NCc1ccccc1 [Compound A, 2-Methyl-5-(p-hydroxyphenylmethyl)-7-naphthylmethyl-3,6-dioxo-hexahydro-[1,2,4]triazolo[4,5-a]pyrazine-1-carboxylic acid benzylamide]
survivin expression (luciferase reporter): inhibit expression of surviving in SW480 cells
